Results published in patent CN115677859A.
No constants are given. Whether binding was seen depends on the method and setting. Some results given as binding are weak or reduced against the parent protein; the word gives no strength.

Tests used:
[1] = molecular target: 猴4-1BB胞外段 (monkey 4-1BB extracellular domain) (monkey (猴)); assay: ELISA, monkey 4-1BB ECD coated, anti-human HRP
[2] = molecular target: 猴PD-L1胞外段 (monkey PD-L1 extracellular domain) (monkey (猴)); assay: ELISA, monkey PD-L1 ECD coated, anti-human HRP

Row | binding [1] | binding [2] | Binder
1 | binds |  | 亲本抗体Anti-4-1BB (中国专利申请CN 201911105611.1中的抗人4-1BB单克隆抗体Hanke10F4) (antibody, V domains shown) VH: QVQLQESGPGLVKPSETLSLTCTVSGSSLTSYGVHWVRQPPGKGLEGLGVIWPGGSTNYNSALMSRVTISKDNSKSQVSLKMSSLTAADTAVYYCARVTGTWYFDVWGQGTTVTVSS VL: DIQMTQSPSSLSASLGDRVTISCSASQGISNYLNWYQQKPDGTVKLLIYYTSTLHSGVPSRFSGSGSGTDYTLTISSLQPEDIATYYCQQYSKLPWTFGGGTKLEIK
2 |  | binds | 亲本抗体Anti-PD-L1 (中国专利申请CN 201910174374.8的抗人PD-L1单克隆抗体, 安科生物) (antibody, V domains shown) VH: DVQLVESGGGLVQPGGSLRLSCTVSGIDLSSYDMTWVRQAPGKGLEYIGYISYVSRTYYADSVKGRFTISKDTSKNTVYLQMNSLRAEDTAVYYCARDRPDGAATNLWGQGTLVTVSS VL: DIQMTQSPSTLSASVGDRVTITCQSSQNVYSNNRLSWYQQKPGKAPKLLIYWTSFLASGVPSRFSGSGSGTEFTLTISSLQPDDFATYYCAGGYSGNLYTFGQGTKLEIKR
